PubChem BioAssay AID1159584 – Peter MacCallum Cancer Centre, 2016

Test: 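Knock-downs that harm CDH1-null cells more than parental MCF10A cells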 (primary screen)
Cell system: human MCF10A breast epithelial cells, parental and CDH1-null
Reagent: siRNA against human genes
Measured: 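ATP luminescence (CellTiter-Glo) viability per line relative to mean mock wells over all plates, and the ratio of CDH1-null to parental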
Reading the numbers: CDH1-null / parental viability ratio: higher = CDH1-null cells survive relatively better than parental
Here is an unselected part of about 18,000 deposited reagents. Not all columns of the deposit are shown. Not stated in the record: the amount of reagent, the time to read-out.

How did the screen score BICC1?
CDH1-null / parental viability ratio: 0.95

What is on record for CA8?
CDH1-null / parental viability ratio: 1.05

With YARS1, what does the deposit list?
CDH1-null / parental viability ratio: 1.05

How did the screen score GPER1?
CDH1-null / parental viability ratio: 1

What is on record for RGS5?
CDH1-null / parental viability ratio: 0.96

With PGAP6, how do the results read?
CDH1-null / parental viability ratio: 0.92

Which result is listed for YJEFN3?
CDH1-null / parental viability ratio: 1.02

For SCAND1, what was measured?
CDH1-null / parental viability ratio: 1.12

With SLC26A8, how do the results read?
CDH1-null / parental viability ratio: 0.98

What did the screen give for PCDHB8?
CDH1-null / parental viability ratio: 0.76

For GLCCI1, what does the deposit list?
CDH1-null / parental viability ratio: 1.03

For WFDC13, how do the results read?
CDH1-null / parental viability ratio: 1.27

For RBFOX1, how do the results read?
CDH1-null / parental viability ratio: 1.3

For HFE, what was measured?
CDH1-null / parental viability ratio: 0.93

What did the screen give for SH3D19?
CDH1-null / parental viability ratio: 1.12

With AHSA1, how do the results read?
CDH1-null / parental viability ratio: 1.02

With RELCH, how do the results read?
CDH1-null / parental viability ratio: 1.23

For SIGMAR1, what was measured?
CDH1-null / parental viability ratio: 0.69

What did the screen give for PLIN5?
CDH1-null / parental viability ratio: 1.25

For BRWD1, how do the results read?
CDH1-null / parental viability ratio: 0.99

What did the screen give for TULP1?
CDH1-null / parental viability ratio: 0.95

For OTUB2, how do the results read?
CDH1-null / parental viability ratio: 1.06

Which result is listed for SLC14A2?
CDH1-null / parental viability ratio: 1.3

With CERS5, what was measured?
CDH1-null / parental viability ratio: 0.97

Which result is listed for PGBD3?
CDH1-null / parental viability ratio: 0.92

Which result is listed for TUBG1?
CDH1-null / parental viability ratio: 0.77

How did the screen score NXPH1?
CDH1-null / parental viability ratio: 0.92

What is on record for NPTXR?
CDH1-null / parental viability ratio: 0.9

With SLC44A3, how do the results read?
CDH1-null / parental viability ratio: 0.97

For SPATS1, what does the deposit list?
CDH1-null / parental viability ratio: 0.94

What did the screen give for SLC29A4?
CDH1-null / parental viability ratio: 1.25

How did the screen score HSD17B1?
CDH1-null / parental viability ratio: 1.03

Which result is listed for MANF?
CDH1-null / parental viability ratio: 1.02

With ENTPD5, how do the results read?
CDH1-null / parental viability ratio: 1.14

For MMP11, how do the results read?
CDH1-null / parental viability ratio: 1.41

Which result is listed for STAC2?
CDH1-null / parental viability ratio: 1.09

For ANKAR, what does the deposit list?
CDH1-null / parental viability ratio: 1.19

With ZNF77, how do the results read?
CDH1-null / parental viability ratio: 0.98

For SP4, how do the results read?
CDH1-null / parental viability ratio: 0.95

Which result is listed for OR8D4?
CDH1-null / parental viability ratio: 0.91

How did the screen score MYOZ3?
CDH1-null / parental viability ratio: 1.02

With TRAK2, what does the deposit list?
CDH1-null / parental viability ratio: 0.68

For CD38, what does the deposit list?
CDH1-null / parental viability ratio: 0.9

What is on record for TIMM17B?
CDH1-null / parental viability ratio: 1.15

How did the screen score NSMF?
CDH1-null / parental viability ratio: 1.15

No new results follow: an excerpt of the list.
RBFOX1 — CDH1-null / parental viability ratio: 1.3
HFE — CDH1-null / parental viability ratio: 0.93
SH3D19 — CDH1-null / parental viability ratio: 1.12
AHSA1 — CDH1-null / parental viability ratio: 1.02
RELCH — CDH1-null / parental viability ratio: 1.23
SIGMAR1 — CDH1-null / parental viability ratio: 0.69
PLIN5 — CDH1-null / parental viability ratio: 1.25
